# Assay results: patent publication EP4831176A1, “BICYCLIC FUSED HETEROAROMATIC RING DERIVATIVE, AND PHARMACEUTICAL COMPOSITION AND USE THEREOF” (dated 2026)
# The chains behind the UniProt entries cited, without tags or fusion partners.
# UniProt O75530, whole entry: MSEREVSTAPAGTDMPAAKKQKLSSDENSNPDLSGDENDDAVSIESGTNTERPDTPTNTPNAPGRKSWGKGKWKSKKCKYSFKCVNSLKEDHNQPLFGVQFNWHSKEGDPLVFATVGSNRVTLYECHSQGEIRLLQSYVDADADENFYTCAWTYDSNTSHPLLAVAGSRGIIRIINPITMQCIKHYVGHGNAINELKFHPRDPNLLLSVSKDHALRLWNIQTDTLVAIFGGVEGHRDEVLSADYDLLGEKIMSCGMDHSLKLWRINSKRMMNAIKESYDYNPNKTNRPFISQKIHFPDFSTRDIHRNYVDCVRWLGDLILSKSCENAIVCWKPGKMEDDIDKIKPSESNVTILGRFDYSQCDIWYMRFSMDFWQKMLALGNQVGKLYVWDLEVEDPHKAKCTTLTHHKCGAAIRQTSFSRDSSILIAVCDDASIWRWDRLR
# Structures were worked out from names or drawings and are uncertain.
# System: Pfeiffer cells
# Assay: Proliferation inhibition of Pfeiffer tumor cells, Cell Titer-Glo
# Details: read-out: CTG IC50, 144 hours incubation
# Source text: In this experiment, Cell Titer-Glo reagent was used to quantitatively analyze the proliferation activity of Pfeiffer cells to detect the inhibitory ability of the compounds on tumor cell proliferation. The specific steps were as follows: • 1. Pfeiffer cells were purchased from Nanjing Cobioer (purchased from ATCC, Catalog No. #CRL2632), subcultured and maintained in logarithmic growth state using RPMI-1640 complete medium (containing 10% v/v fetal bovine serum) according to the supplier's recommended conditions. […] Before cell seeding, cells were collected in a centrifuge tube, centrifuged at 250 rcf for 3 minutes, and the culture medium was discarded. The cells were resuspended in fresh complete medium, and 20 µL of the cell suspension was taken to calculate the cell concentration using a Countstar cell counter. After adjusting the density, cells were seeded into a 384-well plate at 2,000 cells/45 µL and pre-incubated in a 37°C, 5% CO2 incubator for 4 hours. • 3. The negative and positive control groups were treated with 5 µL of control solution (non-complete medium containing 1% v/v DMSO). Compound gradient dilutions were prepared using non-complete medium, and 5 µL of the dilutions were added to the corresponding culture wells. The final concentration of DMSO in the test was 0.1% v/v. Subsequently, the plate was incubated in a 37°C, 5% CO2 incubator for 144 hours. • 4. 40 µL of Cell Titer-Glo reagent was added directly to the cell culture, and the plate was incubated at room temperature in the dark for 30 minutes. The luminescence value was then read on a plate reader, and the results were used to analyze the cell proliferation ratio and compound activity. • 5. The signal value of the negative control group was set as Bottom, and the signal value of the positive control group was set as Top. The compound concentration value (logarithm) was the X-axis, and the luminescence reading at the corresponding concentration was the Y-axis, with HillSlope as the slope factor. A four-parameter logistic model (4PL logistic model) was used for fitting, and the calculation method was as follows:Y = Bottom + (Top - Bottom) / (1 + 10^((Log IC50 - X) × HillSlope))
# After fitting, the IC50 value of the compound was calculated, and the proliferation inhibitory activity of the compound was compared based on the IC50 value.
row,Structure (SMILES),IC50
1,Cn1nc(C2CCC(=O)NC2=O)c2cc(F)c(N3CCC(CN4CCC(c5ncc(-c6cnc(NCc7c(F)ccc8c7CCO8)n7cnc(Cl)c67)cn5)CC4)CC3)cc21 (centres unmarked),21 nM
2,O=C1CCC(N2C(=O)c3ccc(N4CCC(CN5CCC(Nc6ccc(-c7cnc(NCc8c(F)ccc9c8CCO9)n8cnc(Cl)c78)cc6)CC5)CC4)cc3C2=O)C(=O)N1 (centres unmarked),65 nM
3,Cc1ncsc1-c1ccc([C@H](C)NC(=O)[C@@H]2C[C@@H](O)CN2C(=O)[C@@H](NC(=O)CCCNC(=O)c2ccc(-c3cnc(NCc4c(F)ccc5c4CCO5)n4cnc(F)c34)cn2)C(C)(C)C)cc1,43 nM
4,Cn1nc(C2CCC(=O)NC2=O)c2ccc(N3CCC(CN4CCC(c5ccc(-c6cnc(NCc7c(F)ccc8c7CCO8)n7cnc(Cl)c67)c(C(F)(F)F)n5)CC4)CC3)cc21 (centres unmarked),5 nM
5,Cc1ncsc1-c1ccc([C@H](C)NC(=O)[C@@H]2C[C@@H](O)CN2C(=O)[C@@H](NC(=O)[C@H]2C[C@@H](Nc3ccc(-c4cnc(NCc5c(F)ccc6c5CCO6)n5cncc45)cc3I)C2)C(C)(C)C)cc1,191 nM

# Results, then the compound that gave them:
row,IC50,Structure (SMILES)
1,56 nM,O=C1CCC(N2C(=O)c3ccc(N4CCC(CN5CCC(c6ccc(-c7cnc(NCc8c(F)ccc9c8CCO9)n8cnc(F)c78)cc6)CC5)CC4)cc3C2=O)C(=O)N1 (centres unmarked)
2,188 nM,CC1(C)CN(c2ccc3c(c2)C(=O)N(C2CCC(=O)NC2=O)C3=O)CC(C)(C)C1NC(=O)c1ccc(-c2cnc(NCc3c(F)ccc4c3CCO4)n3cnc(Cl)c23)cc1 (centres unmarked)
3,58 nM,Cc1ncsc1-c1ccc([C@H](C)NC(=O)[C@@H]2C[C@@H](O)CN2C(=O)C(c2cc(N3CCN(CC4CCN(c5ccc(-c6cnc(NCc7c(F)ccc8c7CCO8)n7cnc(Cl)c67)cc5)CC4)CC3)no2)C(C)C)cc1 (some centres unmarked)
4,163 nM,Cc1ncsc1-c1ccc([C@H](C)NC(=O)[C@@H]2C[C@@H](O)CN2C(=O)C(c2cc(NCC3CN(c4ccc(-c5cnc(NCc6c(F)ccc7c6CCO7)n6cnnc56)cc4)C3)no2)C(C)C)cc1 (some centres unmarked)
5,176 nM,Cc1ncsc1-c1ccc([C@H](C)NC(=O)[C@@H]2C[C@@H](O)CN2C(=O)[C@@H](NC(=O)C2CN(c3ccc(-c4cnc(NCc5c(F)ccc6c5CCO6)n5cncc45)cc3S(C)(=O)=O)C2)C(C)(C)C)cc1

# Target: EED protein (Homo sapiens, UniProt O75530)
# Assay: EED protein degradation in Karpas-422 cells, In-cell western (ICW)
# Details: 18 hours incubation
# Source text: In this experiment, In-cell western (ICW) method was used to quantitatively analyze the EED protein expression level in Karpas-422 cells to detect the degradation activity of the compounds on the target protein. The specific steps were as follows: • 1. Karpas-422 cells were purchased from Nanjing Cobioer (Catalog No. CBP60629), subcultured and maintained in logarithmic growth state using RPMI-1640 complete medium (containing 10% v/v fetal bovine serum) according to the supplier's recommended conditions. […] One day before cell seeding, a 384-well plate was coated with 30 µL of coating buffer (phosphate buffered saline containing 30 µg/mL poly-D-lysine) at room temperature for 2 hours. The coating solution was then discarded, and the plate was washed once with 90 µL of phosphate buffered saline, which was then discarded. The plate was allowed to air dry naturally in a clean bench, wrapped around the edges with Parafilm to prevent moisture, and stored in a 4°C refrigerator until use. • 3. Before cell seeding, cells were collected in a centrifuge tube, centrifuged at 250 rcf for 3 minutes, and the culture medium was discarded. The cells were resuspended in fresh complete medium, and 20 µL of the cell suspension was taken to calculate the cell concentration using a Countstar cell counter. After adjusting the density, cells were seeded into the prepared coated plate at 15,000 cells/45 µL and pre-incubated in a 37°C, 5% CO2 incubator for 4 hours. • 4. The negative and positive control groups were treated with 5 µL of control solution (serum-free medium containing 1% v/v DMSO). Compound gradient dilutions were prepared using the control solution, and 5 µL of the dilutions were added to the corresponding culture wells. The final concentration of DMSO in the test was 0.1% v/v. Subsequently, the plate was incubated in a 37°C, 5% CO2 incubator for 18 hours. • 5. The culture plate was removed, and cells were fixed by directly adding 10 µL of fixative solution (phosphate buffered saline containing 3% v/v glutaraldehyde) to the cells and incubating at room temperature for 30 minutes. The liquid was discarded. Subsequently, cells were treated with 30 µL of permeabilization staining solution (phosphate buffered saline containing 0.1% v/v Triton X-100 and 20 µg/mL Hoechst 33342) at room temperature for 30 minutes. The permeabilization solution was discarded, and the fluorescence value (excitation at 360 nm, emission at 460 nm) was read on a microplate reader. • 6. 50 µL of repair solution (50 mM citric acid buffer) was added to all wells, and the plate was incubated at 70°C for 2 hours on a constant temperature incubation shaker. The microplate was then removed, equilibrated to room temperature, and the liquid was discarded. • 7. A sufficient amount of antibody dilution buffer (Tris Buffered Saline-Tween solution containing 1% w/v bovine serum albumin) was prepared and stored in a 4°C refrigerator until use. • 8. Primary antibody dilution (EED antibody diluted 1:1000 with antibody dilution buffer) was prepared. 30 µL of antibody dilution buffer without antibody was added to the negative control group. 30 µL of the primary antibody dilution was added to the cells in the other groups, and the plate was incubated overnight at 4°C. • 9. The primary antibody dilution was discarded. The plate was washed 3 times with 90 µL of Tris Buffered Saline-Tween solution, and the wash solution was discarded. Secondary antibody dilution (HRP-linked antibody diluted 1:500 with antibody dilution buffer) was prepared, and 30 µL was added to the cells. The plate was incubated at room temperature for 2 hours. • 10. The secondary antibody dilution was discarded. The plate was washed 3 times with 90 µL of Tris Buffered Saline-Tween solution, and the wash solution was discarded. 30 µL of TMB substrate solution was added, and the plate was incubated at room temperature in the dark for 15 minutes. Then, 30 µL of stop solution (2 M sulfuric acid) was added to terminate the reaction. […]
row,Structure (SMILES),Dmax
1,Cn1nc(C2CCC(=O)NC2=O)c2cc(F)c(N3CCC(CN4CCC(c5ncc(-c6cnc(NCc7c(F)ccc8c7CCO8)n7cnc(Cl)c67)cn5)CC4)CC3)cc21 (centres unmarked),39%
2,O=C1CCC(N2C(=O)c3ccc(N4CCC(CN5CCC(Nc6ccc(-c7cnc(NCc8c(F)ccc9c8CCO9)n8cnc(Cl)c78)cc6)CC5)CC4)cc3C2=O)C(=O)N1 (centres unmarked),36%
3,Cc1ncsc1-c1ccc([C@H](C)NC(=O)[C@@H]2C[C@@H](O)CN2C(=O)[C@@H](NC(=O)CCCNC(=O)c2ccc(-c3cnc(NCc4c(F)ccc5c4CCO5)n4cnc(F)c34)cn2)C(C)(C)C)cc1,76%
4,Cc1ncsc1-c1ccc([C@H](C)NC(=O)[C@@H]2C[C@@H](O)CN2C(=O)[C@@H](NC(=O)CCCC(=O)N2CCC3(CCc4cc(-c5cnc(NCc6c(F)ccc7c6CCO7)n6cnc(S(C)(=O)=O)c56)ccc43)CC2)C(C)(C)C)cc1,72%
5,Cn1nc(C2CCC(=O)NC2=O)c2ccc(N3CCC(CN4CCC(c5ccc(-c6cnc(NCc7c(F)ccc8c7CCO8)n7cnc(Cl)c67)c(C(F)(F)F)n5)CC4)CC3)cc21 (centres unmarked),58%
6,Cc1csc(Nc2ccc([C@H](C)NC(=O)[C@@H]3C[C@@H](O)CN3C(=O)[C@@H](NC(=O)C3CN(c4ccc(-c5cnc(NCc6c(F)ccc7c6CCO7)n6cnnc56)cc4)C3)C(C)(C)C)cc2)n1,68%
7,Cc1cc(CN2CCC(N3CCN(c4ccc(NC5CCC(=O)NC5=O)cc4F)CC3)C(F)(F)C2)ccc1-c1cnc(NCc2c(F)ccc3c2CCO3)n2cnc(Cl)c12 (centres unmarked),27%
8,Cc1ncsc1-c1ccc([C@H](C)NC(=O)[C@@H]2C[C@@H](O)CN2C(=O)[C@@H](NC(=O)C2CN(C3CN(c4ccc(-c5cnc(NCc6c(F)ccc7c6CCO7)n6cnnc56)cn4)C3)C2)C(C)(C)C)cc1,39%
9,Cc1nc(N2CCC(OC3CCN(c4ccc5c(C6CCC(=O)NC6=O)nn(C)c5c4)CC3)CC2)ccc1-c1cnc(NCc2c(F)ccc3c2CCO3)n2cnc(Cl)c12 (centres unmarked),38%
10,Cc1ncsc1-c1ccc([C@H](C)NC(=O)[C@@H]2C[C@@H](O)CN2C(=O)[C@@H](NC(=O)C2CN(c3ccc(-c4cnc(NCc5c(F)ccc6c5CCO6)n5cnnc45)nc3)C2)C(C)(C)C)cc1,26%
11,Cn1nc(C2CCC(=O)NC2=O)c2ccc(N3CCC(CN4CCC(c5ccc(-c6cnc(NCc7c(F)ccc8c7CCO8)c7nc(C(N)=O)cn67)cc5)CC4)CC3)cc21 (centres unmarked),54%
12,Cn1nc(C2CCC(=O)NC2=O)c2ccc(N3CC4(CC(CN5CCC(n6cc(-c7cnc(NCc8c(F)ccc9c8CCO9)n8cnc(Cl)c78)c(F)n6)CC5)C4)C3)cc21 (centres unmarked),27%
13,Cn1nc(C2CCC(=O)NC2=O)c2ccc(N3CCC(CN4CCC(c5ccc(-c6cnc(NCc7c(F)ccc8c7CCO8)c7nc(C(=O)O)cn67)cc5)CC4)CC3)cc21 (centres unmarked),23%
14,Cn1nc(C2CCC(=O)NC2=O)c2ccc(N3CCC(CN4CCC(n5cc(-c6cnc(NCc7c(F)ccc8c7CCO8)n7cnc(Cl)c67)cn5)C(F)(F)C4)CC3)cc21 (centres unmarked),43%

# Next, values leading:
row,Dmax,Structure (SMILES)
1,38%,CCOC(=O)c1cn2c(-c3ccc(C4CCN(CC5CCN(c6ccc7c(C8CCC(=O)NC8=O)nn(C)c7c6)CC5)CC4)cc3)cnc(NCc3c(F)ccc4c3CCO4)c2n1 (centres unmarked)
2,29%,O=C1CCC(N2C(=O)c3ccc(N4CCC(CN5CCC(c6ccc(-c7cnc(NCc8c(F)ccc9c8CCO9)n8cnc(F)c78)cc6)CC5)CC4)cc3C2=O)C(=O)N1 (centres unmarked)
3,41%,Cc1cc(CN2CCC(N3CCN(c4ccc5c(C6CCC(=O)NC6=O)nn(C)c5c4)CC3)C(F)(F)C2)ccc1-c1cnc(NCc2c(F)ccc3c2CCO3)n2cc(C#N)nc12 (centres unmarked)
4,21%,O=C1CCC(N2C(=O)c3ccc(N4CCC(CN5CCC(CN6C7CCC6CN(c6cnc(NCc8c(F)ccc9c8CCO9)n8cnnc68)C7)CC5)CC4)cc3C2=O)C(=O)N1 (centres unmarked)
5,43%,Cn1nc(C2CCC(=O)NC2=O)c2ccc(N3CCC(CN4CCC(c5ccc(-c6cnc(NCc7c(F)ccc8c7CCO8)n7c(C#N)ncc67)cc5)CC4)CC3)cc21 (centres unmarked)
6,32%,O=C1CCC(N2C(=O)c3ccc(N4CCC5(CCN(C(=O)c6ccc(-c7cnc(NCc8c(F)ccc9c8CCO9)n8cnc(Cl)c78)cc6)CC5)CC4)cc3C2=O)C(=O)N1 (centres unmarked)
7,57%,Cc1ncsc1-c1ccc([C@H](C)NC(=O)[C@@H]2C[C@@H](O)CN2C(=O)[C@@H](NC(=O)[C@H]2C[C@@H](NC(=O)c3ccc(-c4cnc(NCc5c(F)ccc6c5CCO6)n5cncc45)cn3)C2)C(C)(C)C)cc1
8,51%,Cc1ncsc1-c1ccc([C@H](C)NC(=O)[C@@H]2C[C@@H](O)CN2C(=O)[C@@H](NC(=O)C2CN(c3ccc(-c4ccc(NCc5c(F)ccc6c5CCO6)n5cnnc45)cc3)C2)C(C)(C)C)cc1
9,35%,O=C1CCC(N2C(=O)c3ccc(N4CCC(CN5CCN(c6ccc(-c7cnc(NCc8c(F)ccc9c8CCO9)n8cnc(Cl)c78)cc6)CC5)CC4)cc3C2=O)C(=O)N1 (centres unmarked)
10,46%,Cc1ncsc1-c1ccc([C@H](C)NC(=O)[C@@H]2C[C@@H](O)CN2C(=O)[C@@H](NC(=O)CCn2cc(-c3cnc(NCc4c(F)ccc5c4CCO5)n4cnc(I)c34)cn2)C(C)(C)C)cc1
11,22%,Cc1ncsc1-c1ccc(C2CCCN2C(=O)[C@@H]2C[C@@H](O)CN2C(=O)[C@@H](NC(=O)C2CN(c3ccc(-c4cnc(NCc5c(F)ccc6c5CCO6)n5cnnc45)cc3)C2)C(C)(C)C)cc1 (some centres unmarked)
